The other results are listed elsewhere or left out.
What was measured:
Test in all cases: log2 fold change, soluble protein after heating vs DMSO (PISA); higher = thermal stabilisation; K562 cells, 10 uM, 30 min; active = over 0.2 and 3.5 SD of the protein, either way, in both replicates (recomputed)
[1] = compound: CC1=C(C=C(C=C1)NC(=O)C2=CC(=CC=C2)C(C)(C)C#N)NC3=CC4=C(C=C3)N=CN(C4=O)C
Summary of the method: (§1)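 Quantification of soluble protein used TMTpro 16plex LC-MS/MS, with channel sums equalised. Samples were the supernatant after 21,000xg for 90 min of pooled aliquots from K562 cells (2×10^6 cells/mL) treated with 10 μM compound for 30 min, heated for 3 min over 48°C-58°C, and extracted in PBS with 0.5% NP-40 at 4°C. Values, from duplicates, describe thermal stability against control samples on a log2 fold-change scale.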

Chains of the proteins cited; added tags and fusions are not shown. Lines headed by an entry give the natural chain unless they say otherwise; changes in a name come on top.
UniProt Q9NVU0: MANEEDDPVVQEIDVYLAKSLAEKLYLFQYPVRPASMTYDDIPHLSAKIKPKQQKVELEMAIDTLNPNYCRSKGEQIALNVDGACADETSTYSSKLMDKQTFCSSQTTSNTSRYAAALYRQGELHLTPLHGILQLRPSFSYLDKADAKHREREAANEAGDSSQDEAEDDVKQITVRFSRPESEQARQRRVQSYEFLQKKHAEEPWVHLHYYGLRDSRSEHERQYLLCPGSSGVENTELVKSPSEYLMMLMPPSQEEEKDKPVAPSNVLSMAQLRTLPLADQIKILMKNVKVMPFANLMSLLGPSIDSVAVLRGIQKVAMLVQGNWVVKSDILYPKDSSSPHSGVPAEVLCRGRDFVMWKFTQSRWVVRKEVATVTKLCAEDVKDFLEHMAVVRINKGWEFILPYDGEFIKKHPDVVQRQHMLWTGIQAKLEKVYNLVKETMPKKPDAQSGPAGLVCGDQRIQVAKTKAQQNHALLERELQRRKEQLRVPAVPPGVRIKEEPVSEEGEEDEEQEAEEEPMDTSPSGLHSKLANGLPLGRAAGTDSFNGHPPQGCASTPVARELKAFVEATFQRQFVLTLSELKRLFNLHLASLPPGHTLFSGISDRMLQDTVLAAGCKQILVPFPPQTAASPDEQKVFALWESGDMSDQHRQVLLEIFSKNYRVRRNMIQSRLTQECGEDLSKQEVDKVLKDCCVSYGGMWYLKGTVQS
UniProt O60568: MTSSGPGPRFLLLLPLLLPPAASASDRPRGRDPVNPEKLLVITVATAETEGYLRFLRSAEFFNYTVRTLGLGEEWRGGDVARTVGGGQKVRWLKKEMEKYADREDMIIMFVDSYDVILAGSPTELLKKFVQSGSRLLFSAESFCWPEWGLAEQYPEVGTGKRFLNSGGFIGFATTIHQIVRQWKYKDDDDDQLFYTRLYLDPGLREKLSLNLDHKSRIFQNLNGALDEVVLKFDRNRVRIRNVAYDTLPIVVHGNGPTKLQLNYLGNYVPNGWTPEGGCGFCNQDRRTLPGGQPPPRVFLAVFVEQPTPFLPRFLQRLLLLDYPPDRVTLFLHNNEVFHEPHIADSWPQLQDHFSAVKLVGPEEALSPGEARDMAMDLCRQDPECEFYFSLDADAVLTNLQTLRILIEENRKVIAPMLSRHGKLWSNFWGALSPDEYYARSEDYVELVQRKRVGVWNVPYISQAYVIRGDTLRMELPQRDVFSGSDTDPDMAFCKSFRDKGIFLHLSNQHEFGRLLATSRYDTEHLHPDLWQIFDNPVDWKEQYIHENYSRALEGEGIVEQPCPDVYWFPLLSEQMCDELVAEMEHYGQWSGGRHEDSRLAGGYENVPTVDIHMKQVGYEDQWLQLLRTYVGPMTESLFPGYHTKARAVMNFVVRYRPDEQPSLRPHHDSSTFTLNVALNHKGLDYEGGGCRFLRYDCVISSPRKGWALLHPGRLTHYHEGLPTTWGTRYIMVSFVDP
UniProt O95707: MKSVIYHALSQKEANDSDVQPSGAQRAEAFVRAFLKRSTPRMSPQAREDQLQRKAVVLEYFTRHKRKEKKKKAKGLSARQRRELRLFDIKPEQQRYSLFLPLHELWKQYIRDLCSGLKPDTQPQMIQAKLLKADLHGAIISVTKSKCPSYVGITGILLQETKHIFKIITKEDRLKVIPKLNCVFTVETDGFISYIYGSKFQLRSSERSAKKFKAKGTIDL
UniProt P45877: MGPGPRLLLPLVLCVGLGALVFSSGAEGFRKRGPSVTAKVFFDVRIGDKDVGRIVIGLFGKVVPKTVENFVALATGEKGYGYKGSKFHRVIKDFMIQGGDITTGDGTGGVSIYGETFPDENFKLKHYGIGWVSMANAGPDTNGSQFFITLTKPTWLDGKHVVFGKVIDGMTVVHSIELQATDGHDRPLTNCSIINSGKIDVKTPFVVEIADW
UniProt O60664: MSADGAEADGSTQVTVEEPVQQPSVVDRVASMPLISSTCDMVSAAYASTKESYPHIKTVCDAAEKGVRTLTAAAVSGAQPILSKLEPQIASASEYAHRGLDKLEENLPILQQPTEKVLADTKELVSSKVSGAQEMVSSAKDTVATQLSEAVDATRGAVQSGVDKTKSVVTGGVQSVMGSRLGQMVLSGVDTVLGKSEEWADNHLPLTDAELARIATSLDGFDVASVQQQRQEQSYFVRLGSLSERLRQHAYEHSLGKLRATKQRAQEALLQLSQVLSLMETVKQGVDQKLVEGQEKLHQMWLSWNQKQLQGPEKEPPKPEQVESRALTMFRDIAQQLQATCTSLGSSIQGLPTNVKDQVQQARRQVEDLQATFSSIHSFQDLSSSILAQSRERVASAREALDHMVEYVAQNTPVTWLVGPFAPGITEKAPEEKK
UniProt Q6EEV4: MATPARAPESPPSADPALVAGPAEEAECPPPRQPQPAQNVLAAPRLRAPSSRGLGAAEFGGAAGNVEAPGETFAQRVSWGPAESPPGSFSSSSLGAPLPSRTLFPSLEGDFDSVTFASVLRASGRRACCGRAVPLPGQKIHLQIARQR
UniProt Q04941: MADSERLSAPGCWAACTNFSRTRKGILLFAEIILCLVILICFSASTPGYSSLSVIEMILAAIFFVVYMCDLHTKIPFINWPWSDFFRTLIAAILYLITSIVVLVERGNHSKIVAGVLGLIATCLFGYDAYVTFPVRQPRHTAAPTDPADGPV
UniProt Q13794: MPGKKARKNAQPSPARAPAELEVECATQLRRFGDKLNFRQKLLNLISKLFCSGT
UniProt Q9BX97: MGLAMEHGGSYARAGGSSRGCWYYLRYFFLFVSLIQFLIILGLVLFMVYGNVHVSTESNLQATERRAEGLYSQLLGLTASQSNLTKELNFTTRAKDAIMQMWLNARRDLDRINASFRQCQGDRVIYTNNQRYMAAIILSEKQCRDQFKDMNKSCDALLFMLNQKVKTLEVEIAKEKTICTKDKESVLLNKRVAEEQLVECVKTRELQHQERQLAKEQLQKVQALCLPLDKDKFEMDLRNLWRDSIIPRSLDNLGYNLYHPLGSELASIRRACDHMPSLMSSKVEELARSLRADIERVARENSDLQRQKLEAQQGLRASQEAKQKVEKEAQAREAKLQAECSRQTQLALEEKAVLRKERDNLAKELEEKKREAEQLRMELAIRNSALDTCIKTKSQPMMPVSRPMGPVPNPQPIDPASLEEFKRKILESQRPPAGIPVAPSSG
UniProt P41247: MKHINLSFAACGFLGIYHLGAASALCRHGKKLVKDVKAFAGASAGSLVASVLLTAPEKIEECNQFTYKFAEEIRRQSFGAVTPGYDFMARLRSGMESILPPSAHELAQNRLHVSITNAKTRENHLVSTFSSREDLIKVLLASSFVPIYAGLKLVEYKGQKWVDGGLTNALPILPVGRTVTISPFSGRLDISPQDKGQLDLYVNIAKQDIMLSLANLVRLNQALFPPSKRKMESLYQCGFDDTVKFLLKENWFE
UniProt Q9H307: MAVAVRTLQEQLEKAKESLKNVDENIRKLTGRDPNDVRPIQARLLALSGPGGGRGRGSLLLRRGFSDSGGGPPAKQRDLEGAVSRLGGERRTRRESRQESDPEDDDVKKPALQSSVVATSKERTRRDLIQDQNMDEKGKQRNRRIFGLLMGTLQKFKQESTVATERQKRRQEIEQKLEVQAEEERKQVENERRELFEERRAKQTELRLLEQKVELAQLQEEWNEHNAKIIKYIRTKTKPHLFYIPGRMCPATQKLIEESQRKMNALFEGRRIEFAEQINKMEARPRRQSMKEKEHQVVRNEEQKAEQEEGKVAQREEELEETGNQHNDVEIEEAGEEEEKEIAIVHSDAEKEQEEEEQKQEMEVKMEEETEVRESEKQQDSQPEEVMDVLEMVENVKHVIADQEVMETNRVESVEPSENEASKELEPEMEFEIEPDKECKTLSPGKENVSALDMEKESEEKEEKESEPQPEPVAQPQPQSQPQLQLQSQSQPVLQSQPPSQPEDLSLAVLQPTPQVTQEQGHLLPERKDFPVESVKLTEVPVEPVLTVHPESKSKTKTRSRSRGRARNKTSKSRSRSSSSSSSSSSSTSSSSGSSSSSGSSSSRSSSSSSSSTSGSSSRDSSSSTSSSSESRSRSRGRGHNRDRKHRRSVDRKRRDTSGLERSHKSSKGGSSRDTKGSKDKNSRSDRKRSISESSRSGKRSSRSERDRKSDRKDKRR
UniProt P55058, whole entry, looked up: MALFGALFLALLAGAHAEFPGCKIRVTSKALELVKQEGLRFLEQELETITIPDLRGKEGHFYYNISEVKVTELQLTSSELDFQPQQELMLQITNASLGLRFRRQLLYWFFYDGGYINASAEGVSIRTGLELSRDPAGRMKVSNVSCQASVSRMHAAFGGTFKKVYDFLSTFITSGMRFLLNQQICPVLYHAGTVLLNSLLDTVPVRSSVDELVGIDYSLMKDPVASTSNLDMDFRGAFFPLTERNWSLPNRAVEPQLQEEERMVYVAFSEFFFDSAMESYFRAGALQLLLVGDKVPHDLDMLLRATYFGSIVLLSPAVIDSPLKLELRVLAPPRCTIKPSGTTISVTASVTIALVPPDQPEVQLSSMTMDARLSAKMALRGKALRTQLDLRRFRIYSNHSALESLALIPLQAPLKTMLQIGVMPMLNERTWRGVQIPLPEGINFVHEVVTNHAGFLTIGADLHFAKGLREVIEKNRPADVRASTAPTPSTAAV
UniProt P29590: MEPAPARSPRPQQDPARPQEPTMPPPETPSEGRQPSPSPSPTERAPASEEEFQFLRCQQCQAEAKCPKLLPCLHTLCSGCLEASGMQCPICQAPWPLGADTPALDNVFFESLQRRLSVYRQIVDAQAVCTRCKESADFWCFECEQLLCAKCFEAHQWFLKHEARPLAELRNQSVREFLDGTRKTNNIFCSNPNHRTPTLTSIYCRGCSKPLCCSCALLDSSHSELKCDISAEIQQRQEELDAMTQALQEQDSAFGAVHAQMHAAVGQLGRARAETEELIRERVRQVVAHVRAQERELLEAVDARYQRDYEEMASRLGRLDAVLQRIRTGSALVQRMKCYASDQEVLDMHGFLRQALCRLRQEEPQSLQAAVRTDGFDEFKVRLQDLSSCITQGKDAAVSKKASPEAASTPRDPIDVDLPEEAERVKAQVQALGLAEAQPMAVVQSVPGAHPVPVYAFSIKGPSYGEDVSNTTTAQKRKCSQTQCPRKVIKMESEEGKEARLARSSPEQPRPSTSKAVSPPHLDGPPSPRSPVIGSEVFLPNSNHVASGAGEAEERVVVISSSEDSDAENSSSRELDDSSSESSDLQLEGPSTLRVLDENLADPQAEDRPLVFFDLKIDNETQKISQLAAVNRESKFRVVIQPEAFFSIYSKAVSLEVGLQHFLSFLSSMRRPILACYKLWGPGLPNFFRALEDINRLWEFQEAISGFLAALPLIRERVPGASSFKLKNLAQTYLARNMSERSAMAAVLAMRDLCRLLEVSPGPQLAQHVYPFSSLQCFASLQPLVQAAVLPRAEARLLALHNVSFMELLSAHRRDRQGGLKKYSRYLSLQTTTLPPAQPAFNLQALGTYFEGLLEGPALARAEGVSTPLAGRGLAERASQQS
UniProt P0CG38, whole entry, looked up: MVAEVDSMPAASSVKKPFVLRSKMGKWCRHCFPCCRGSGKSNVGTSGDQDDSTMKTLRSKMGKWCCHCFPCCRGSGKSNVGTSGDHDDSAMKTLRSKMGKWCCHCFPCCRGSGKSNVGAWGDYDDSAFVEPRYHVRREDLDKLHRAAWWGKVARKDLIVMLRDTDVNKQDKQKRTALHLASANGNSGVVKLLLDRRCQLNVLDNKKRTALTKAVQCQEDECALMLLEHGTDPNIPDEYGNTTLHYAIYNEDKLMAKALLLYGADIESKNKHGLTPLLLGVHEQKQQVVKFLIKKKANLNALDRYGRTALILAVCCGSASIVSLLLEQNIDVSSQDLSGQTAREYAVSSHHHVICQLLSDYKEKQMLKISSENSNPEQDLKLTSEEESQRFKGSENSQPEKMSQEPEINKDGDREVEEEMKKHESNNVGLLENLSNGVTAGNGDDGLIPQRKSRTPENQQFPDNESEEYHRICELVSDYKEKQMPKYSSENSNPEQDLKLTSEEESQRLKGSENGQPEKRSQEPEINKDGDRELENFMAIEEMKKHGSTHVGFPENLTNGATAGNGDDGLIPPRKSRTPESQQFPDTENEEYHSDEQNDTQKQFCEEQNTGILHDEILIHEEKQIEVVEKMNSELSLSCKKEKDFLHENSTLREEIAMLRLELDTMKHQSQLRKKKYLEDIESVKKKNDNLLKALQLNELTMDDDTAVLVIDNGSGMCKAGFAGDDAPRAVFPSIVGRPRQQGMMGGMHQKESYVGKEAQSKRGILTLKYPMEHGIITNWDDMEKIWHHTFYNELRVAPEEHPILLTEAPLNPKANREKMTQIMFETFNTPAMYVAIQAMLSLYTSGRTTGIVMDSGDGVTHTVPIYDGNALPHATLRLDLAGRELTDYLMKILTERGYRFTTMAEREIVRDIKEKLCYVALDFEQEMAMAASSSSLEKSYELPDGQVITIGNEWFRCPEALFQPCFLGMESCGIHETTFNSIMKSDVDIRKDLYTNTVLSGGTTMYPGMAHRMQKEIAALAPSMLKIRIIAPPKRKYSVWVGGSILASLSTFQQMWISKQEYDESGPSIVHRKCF

[2] = compound: CC1=C(C=C(C=C1)NC(=O)C2=CC(=CC=C2)N(C)C)NC(=O)C3=CC=C(C=C3)O
Summary of the method: as §1

[3] = compound: CC1=CC=C(C=C1)SC2=C3C=C(SC3=CN=C2)C(=O)N
Summary of the method: as §1

[4] = compound: CC1=NC(=CC=C1)C2=C(N=C(N2)C(C)(C)C)C3=CC4=NC=CN=C4C=C3
Summary of the method: as §1

Nexturastat A = compound: CCCCN(Cc1ccc(C(=O)NO)cc1)C(=O)Nc1ccccc1 [Nexturastat A]
Summary of the method: as §1

vemurafenib = compound: CCCS(=O)(=O)Nc1ccc(F)c(C(=O)c2c[nH]c3ncc(-c4ccc(Cl)cc4)cc23)c1F [vemurafenib]
Summary of the method: as §1

[5] = compound: CCCS(=O)(=O)Nc1ccc(F)c(C(=O)c2c[nH]c3ncc(Cl)cc23)c1F
Summary of the method: as §1

[6] = compound: CCCc1cc(C)[nH]c(=O)c1CNC(=O)c1cc(-c2ccnc(N3CCN(C)CC3)c2)cc2c1cnn2C(C)C
Summary of the method: as §1

givinostat = compound: CCN(CC)Cc1ccc2cc(COC(=O)Nc3ccc(C(=O)NO)cc3)ccc2c1 [givinostat]
Summary of the method: as §1

barasertib = compound: CCN(CCCOc1ccc2c(Nc3cc(CC(=O)Nc4cccc(F)c4)[nH]n3)ncnc2c1)CCOP(=O)(O)O [barasertib]
Summary of the method: as §1

Measured: log2 fold change

POLR3E (UniProt Q9NVU0)
inactive: [1] -0.017 | [2] -0.025 | [3] 0.006 | [4] -0.089 | Nexturastat A 0.005 | vemurafenib 0.075 | [5] 0.152 | [6] 0.113 | givinostat 0.081 | barasertib 0.066

PLOD3 (UniProt O60568)
inactive: [1] -0.023 | [2] -0.015 | [3] -0.028 | [4] -0.035 | Nexturastat A 0 | vemurafenib -0.05 | [5] -0.087 | [6] -0.002 | givinostat -0.006 | barasertib -0.029

POP4 (UniProt O95707)
inactive: [1] 0.018 | [2] -0.107 | [3] -0.021 | [4] -0.05 | Nexturastat A 0.056 | vemurafenib -0.015 | [5] -0.033 | [6] 0.023 | givinostat -0.053 | barasertib -0.008

POLR2C (UniProt P19387)
inactive: [1] -0.097 | [2] -0.058 | [3] 0.038 | [4] -0.011 | Nexturastat A 0.126 | vemurafenib 0.021 | [5] 0.066 | [6] -0.005 | givinostat 0.042 | barasertib 0.022

Reprinted at random: two records from the list
POLR3E (UniProt Q9NVU0)
inactive: [1] -0.017 | [2] -0.025 | [3] 0.006 | [4] -0.089 | Nexturastat A 0.005 | vemurafenib 0.075 | [5] 0.152 | [6] 0.113 | givinostat 0.081 | barasertib 0.066

PLOD3 (UniProt O60568)
inactive: [1] -0.023 | [2] -0.015 | [3] -0.028 | [4] -0.035 | Nexturastat A 0 | vemurafenib -0.05 | [5] -0.087 | [6] -0.002 | givinostat -0.006 | barasertib -0.029

Further results

POLG (UniProt P54098)
inactive: [1] 0.042 | [2] 0.061 | [3] -0.038 | [4] -0.117 | Nexturastat A 0.069 | vemurafenib -0.111 | [5] -0.086 | [6] 0.032 | givinostat -0.004 | barasertib 0.031

PPIC (UniProt P45877)
inactive: [1] -0.019 | [3] -0.074 | [4] 0.003 | Nexturastat A 0 | [5] -0.086 | [6] -0.099 | givinostat 0.022 | barasertib 0.006

PLIN3 isoform 2 (UniProt O60664)
inactive: [1] -0.237 | [3] -0.023 | Nexturastat A 0.135 | [5] -0.092 | [6] -0.376 | barasertib 0.057

POLR2M (UniProt Q6EEV4)
inactive: [1] 0.091 | [3] -0.062 | [4] 0.046 | Nexturastat A -0.403 | vemurafenib 0.017 | [5] -0.066 | [6] -0.073 | givinostat -0.105 | barasertib -0.055

PLP2 (UniProt Q04941)
inactive: [1] -0.083 | [3] -0.072 | [4] -0.103 | Nexturastat A 0.009 | vemurafenib -0.109 | [5] -0.059 | [6] 0.022 | givinostat -0.356 | barasertib 0.325

POM121C (UniProt A8CG34)
inactive: [1] -0.036 | [2] -0.089 | [4] 0.005 | [6] 0.106 | givinostat 0.028 | barasertib 0.152

POGZ (UniProt Q7Z3K3)
inactive: [1] 0.037 | [2] -0.025 | [3] 0.028 | [4] 0.008 | Nexturastat A -0.127 | vemurafenib 0.122 | [5] -0.024 | givinostat -0.142

PMAIP1 (UniProt Q13794)
inactive: [1] -0.014 | [2] 0.121 | [3] 0.123 | Nexturastat A 0.046 | vemurafenib -0.065 | [5] -0.039 | [6] -0.023 | givinostat 0.086 | barasertib -0.02

PNMT (UniProt P11086)
inactive: [1] -0.076 | [3] 0.072 | [5] 0.003 | givinostat -0.035

POLE4 (UniProt Q9NR33)
inactive: [1] 0.071 | [3] 0.121 | [4] 0.008 | Nexturastat A -0.055 | vemurafenib 0.098 | [5] 0.025 | [6] 0.017 | givinostat 0.049 | barasertib 0.039

PLVAP (UniProt Q9BX97)
inactive: [1] 0.275 | [2] -0.063 | [3] 0.124 | Nexturastat A -0.474 | vemurafenib 0.22 | [5] -0.031 | [6] 0.097 | givinostat 0.032 | barasertib 0.125

PNPLA4 (UniProt P41247)
inactive: [1] 0.418 | [2] -0.04 | [3] 0.409 | [4] 0.273 | vemurafenib -0.093 | [5] -0.025 | [6] -0.277 | barasertib 0.042
active: givinostat 1.1

POMGNT2 (UniProt Q8NAT1)
inactive: [1] -0.011 | [3] 0.004 | [4] -0.193 | vemurafenib 0.002 | [5] 0.011 | [6] -0.03 | givinostat -0.056 | barasertib 0.047

PNN (UniProt Q9H307)
inactive: [1] -0.101 | [2] 0.084 | [3] 0.003 | [4] 0.011 | Nexturastat A 0.03 | [5] 0.04 | [6] 0.004 | givinostat 0.121 | barasertib 0.027

POT1 (UniProt Q9NUX5)
inactive: [1] -0.132 | [2] -0.006 | Nexturastat A 0.018 | [6] -0.252 | givinostat -0.389 | barasertib 0.024

PLTP (UniProt P55058)
inactive: [1] 0.148 | [3] 0.061 | [4] -0.317 | Nexturastat A 0.032 | vemurafenib -0.099 | [5] -0.15 | [6] -0.009 | givinostat -0.033

PML (UniProt P29590)
inactive: [1] -0.024 | [2] -0.001 | [3] -0.009 | [4] -0.02 | Nexturastat A -0.002 | vemurafenib -0.044 | [5] 0.018 | [6] -0.007 | givinostat -0.014 | barasertib 0.01

POTEI (UniProt P0CG38)
inactive: [1] 0.056 | [2] -0.035 | [3] -0.012 | [4] 0.052 | Nexturastat A -0.071 | vemurafenib 0.08 | [5] 0.014 | [6] -0.072 | givinostat -0.018 | barasertib 0

PNKP (UniProt Q96T60)
inactive: [1] -0.104 | [2] -0.049 | [3] 0.018 | [4] 0.07 | vemurafenib 0.197 | [5] -0.066

PLG (UniProt P00747)
inactive: [1] -0.071 | [3] 0.122 | [4] 0.095 | vemurafenib -0.02 | [5] -0.046 | givinostat -0.081 | barasertib 0.04

— the supplement of paper PMC10849652
